Measurements reported in PubChem BioAssay AID602196 (INSERM, 2012)
Here is an unselected part of about 23,000 reagents tested. 455 of all reagents (2%) count as active. 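Active includes both protection and sensitisation; some change values fall well beyond the stated -50 to +50 range.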 A number with no mark means an inactive call. Not all columns of the deposit are shown. Not given: the amount of reagent.

Aim: 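Modifiers of cisplatin sensitivity in A549 cells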
System: human A549 lung cancer cells
Knock-down reagent: siRNA pair against human genes
Duration: 48 h transfection before cisplatin; time from cisplatin to read-out not stated
Challenge: cisplatin at a dose killing half of control-siRNA cells; exact dose and duration not given
Measurement: 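Shift in cisplatin death relative to control siRNA, from -50 (all cells die) to +50 (no cells die); siRNAs harmful on their own scored 0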
Reading the numbers: two-siRNA summed score (-2 to +2): higher = both siRNAs protect from cisplatin killing; -2 means both sensitise
Hit rule: 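siRNAs harmful alone (LDH or WST-1) get 0; others get +1 for less and -1 for more cisplatin killing; genes are active when the two siRNAs give the same sign, summing to ±2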
Meaning of the calls: active = both siRNAs shift cisplatin killing the same way; inactive = no consistent shift, or siRNA harmful alone

Which result is listed for RAD17 (RAD17 checkpoint clamp loader component)?
two-siRNA summed score (-2 to +2): 0

With LOC400551, how do the results read?
two-siRNA summed score (-2 to +2): 0

With PTX3 (pentraxin 3), how do the results read?
two-siRNA summed score (-2 to +2): 0

With OR1A1 (olfactory receptor family 1 subfamily A member 1), what does the deposit list?
two-siRNA summed score (-2 to +2): 0

With COQ2 (coenzyme Q2, polyprenyltransferase), what does the deposit list?
two-siRNA summed score (-2 to +2): 0

Which result is listed for LOC138255?
two-siRNA summed score (-2 to +2): 0

What is on record for CAPN3 (calpain 3)?
two-siRNA summed score (-2 to +2): -1

What is on record for LOC400621?
two-siRNA summed score (-2 to +2): 0

How did the screen score SH3BGR (SH3 domain binding glutamate rich protein)?
two-siRNA summed score (-2 to +2): 0

What is on record for STYX (serine/threonine/tyrosine interacting protein)?
two-siRNA summed score (-2 to +2): 0

Which result is listed for LINC00906 (long independently transcribed non-coding RNA 906)?
two-siRNA summed score (-2 to +2): 0

What did the screen give for TOMM20L (translocase of outer mitochondrial membrane 20 like)?
two-siRNA summed score (-2 to +2): 0

For IL5 (interleukin 5), what was measured?
two-siRNA summed score (-2 to +2): 0

For RXRG (retinoid X receptor gamma), how do the results read?
two-siRNA summed score (-2 to +2): 0

For KDM4A (lysine demethylase 4A), how do the results read?
two-siRNA summed score (-2 to +2): 0

For SLC2A2, what does the deposit list?
two-siRNA summed score (-2 to +2): 0

With TBC1D9 (TBC1 domain family member 9), what does the deposit list?
two-siRNA summed score (-2 to +2): -1

What is on record for FCRL1 (Fc receptor like 1)?
two-siRNA summed score (-2 to +2): 0

With MAGEB6 (MAGE family member B6), what does the deposit list?
two-siRNA summed score (-2 to +2): 0

What is on record for OMA1 (OMA1 zinc metallopeptidase)?
two-siRNA summed score (-2 to +2): 1

Targets above whose gene name starts with R or r:
RAD17 (RAD17 checkpoint clamp loader component) — two-siRNA summed score (-2 to +2) = 0
RXRG (retinoid X receptor gamma) — two-siRNA summed score (-2 to +2) = 0

Additional reagents follow.
With ZNF709 (zinc finger protein 709), what does the deposit list?
two-siRNA summed score (-2 to +2): 0

How did the screen score PEAK3 (PEAK family member 3)?
two-siRNA summed score (-2 to +2): 1

Which result is listed for SETD2 (SET domain containing 2, histone lysine methyltransferase)?
two-siRNA summed score (-2 to +2): 0

With LOC442129, what does the deposit list?
two-siRNA summed score (-2 to +2): 0

For DMD (dystrophin), what was measured?
two-siRNA summed score (-2 to +2): 1

Which result is listed for AP2A2 (adaptor related protein complex 2 subunit alpha 2)?
two-siRNA summed score (-2 to +2): 1

How did the screen score SF3B4 (splicing factor 3b subunit 4)?
two-siRNA summed score (-2 to +2): 0

For TSNARE1 (t-SNARE domain containing 1), what was measured?
two-siRNA summed score (-2 to +2): 0

What is on record for SDF2 (stromal cell derived factor 2)?
two-siRNA summed score (-2 to +2): -1

For CRYGD (crystallin gamma D), what does the deposit list?
two-siRNA summed score (-2 to +2): 0

What is on record for VLDLR (very low density lipoprotein receptor)?
two-siRNA summed score (-2 to +2): 0
